The text below walks through data of PMC11166458, “Caskin2 is a novel talin- and Abi1-binding protein that promotes cell motility” (Journal of Cell Science, 2024).

Chains of the proteins cited; added tags and fusions are not shown.
UniProt Q8WXE0: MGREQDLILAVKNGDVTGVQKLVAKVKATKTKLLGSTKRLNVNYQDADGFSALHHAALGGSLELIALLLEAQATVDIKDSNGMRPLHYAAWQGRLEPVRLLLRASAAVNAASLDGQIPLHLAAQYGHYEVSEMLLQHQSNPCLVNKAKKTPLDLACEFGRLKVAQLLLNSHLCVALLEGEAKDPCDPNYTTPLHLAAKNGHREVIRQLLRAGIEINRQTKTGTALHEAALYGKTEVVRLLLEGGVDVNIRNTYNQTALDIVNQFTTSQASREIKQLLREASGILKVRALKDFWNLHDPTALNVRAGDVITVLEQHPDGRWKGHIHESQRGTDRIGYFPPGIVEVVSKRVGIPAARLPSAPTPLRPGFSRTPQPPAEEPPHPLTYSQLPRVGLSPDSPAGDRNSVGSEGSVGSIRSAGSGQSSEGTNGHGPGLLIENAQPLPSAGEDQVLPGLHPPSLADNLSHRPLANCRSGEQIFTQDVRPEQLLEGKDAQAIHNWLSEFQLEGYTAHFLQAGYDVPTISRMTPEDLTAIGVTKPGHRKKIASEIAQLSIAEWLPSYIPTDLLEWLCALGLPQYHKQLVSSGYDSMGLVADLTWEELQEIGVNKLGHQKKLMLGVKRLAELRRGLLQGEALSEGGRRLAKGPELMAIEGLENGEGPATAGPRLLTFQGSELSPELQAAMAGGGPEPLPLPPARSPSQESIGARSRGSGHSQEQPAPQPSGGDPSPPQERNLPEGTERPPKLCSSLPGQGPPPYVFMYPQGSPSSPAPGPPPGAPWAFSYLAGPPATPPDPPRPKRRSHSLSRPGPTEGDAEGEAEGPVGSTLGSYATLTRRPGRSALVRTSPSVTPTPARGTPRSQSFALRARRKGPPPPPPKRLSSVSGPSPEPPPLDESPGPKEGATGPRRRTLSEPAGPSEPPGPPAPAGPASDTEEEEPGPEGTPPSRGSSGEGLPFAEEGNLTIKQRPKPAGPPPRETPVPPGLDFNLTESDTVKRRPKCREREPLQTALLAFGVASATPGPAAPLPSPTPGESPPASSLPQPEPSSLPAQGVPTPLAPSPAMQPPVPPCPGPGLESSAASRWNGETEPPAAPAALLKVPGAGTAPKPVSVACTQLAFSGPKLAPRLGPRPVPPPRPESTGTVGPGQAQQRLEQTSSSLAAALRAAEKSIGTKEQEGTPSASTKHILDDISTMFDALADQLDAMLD

This assay has as its target Caskin2-FL–GFP (human) (UniProt Q8WXE0). Briefly: affinity purification with mass spectrometry; GFP-Trap of Caskin2-FL–GFP (GFP as control) stably expressed in GE11tetONβ1 cells; label-free quantitation.

Results are given in words; binding and its absence hold for the method and conditions named. In cells and extracts the contact can be indirect. These calls come from enrichment with a bait or labelling near it, and not all partners need be listed.

B1: striatin-3 (endogenous, GE11 cells) (protein, UniProt Q9ERG2 1-796)
chain: MDELAGGGGGGQGMAAPPRPQQGPGGNLSLPPGANGAPGGGGPPAAEAAGPPAGPELSRPQQYTIPGILHYIQHEWARFEMERAHWEVERAELQARIAFLQGERKGQENLKKDLVRRIKMLEYALKQERAKYHKLKYGTELNQGDLKMPTFESEETKDVEAPPAPQNSQLTWKQGRQLLRQYLQEVGYTDTILDVRSQRVRSLLGLSNSEPNGSVEAKNLEQILNGGESPKQKGQEIKRPPGDVLETFNFLENADDSDEEENDMIEGIPEGKDKLRIHKHKIGNEGLAADLTDDPDTEEALKEFDFLVTAEDGEGAGEARSSGDGTEWDKDDLSPTAEVWDVDQGLISKLKEQYKKERKGKKGVKRVNRTNLCDMITDLGDDELPHIPSGIINQSRSASTRMADHEGARAEEAEPITFPSGGGKSFIMGSDDVLLSVLGLGDLADLTVTNDADYSYDLPANKDAFRKTWNPKYTLRSHFDGVRALAFHPVEPVLVTASEDHTLKLWNLQKTVPAKKSASLDVEPIYTFRAHIGPVLSLAISSNGEQCFSGGIDATIQWWNMPSPNVDPYDTYESNVLAGTLVAHTDAVWGLAYSGIKNQLLSCSADGTIRLWNPQEKLPCVCTYNGDKEHGIPTSVDFIGCDPAHMVTSFNTGSAVIYDLETSQSLVMLSSQVDSGLQSSNHINRVVSHPTLPVTITAHEDRHIKFFDNKTGKMIHSMVAHLDAVTSLAVDPNGIYLMSGSHDCSIRLWNLDSKTCVQEITAHRKKLDESIYDVAFHPSKAYIASAGADALAKVFV
As for B1, the binding entry is “binds”.

B2: Ywhag (endogenous, GE11 cells) (protein, UniProt P61982 1-247)
chain: MVDREQLVQKARLAEQAERYDDMAAAMKNVTELNEPLSNEERNLLSVAYKNVVGARRSSWRVISSIEQKTSADGNEKKIEMVRAYREKIEKELEAVCQDVLSLLDNYLIKNCSETQYESKVFYLKMKGDYYRYLAEVATGEKRATVVESSEKAYSEAHEISKEHMQPTHPIRLGLALNYSVFYYEIQNAPEQACHLAKTAFDDAIAELDTLNEDSYKDSTLIMQLLRDNLTLWTSDQQDDDGGEGNN
For the molecule B2, the binding result was “binds”.

B3: striatin (endogenous, GE11 cells) (protein, UniProt O55106 1-780)
chain: MDEQAGPGVFFSNNHPGAGGAKGLGPLAEAAAAGDGAAAAGAARAQYSLPGILHFLQHEWARFEVERAQWEVERAELQAQIAFLQGERKGQENLKKDLVRRIKMLEYALKQERAKYHKLKYGTELNQGDMKPPSYDSDEGNETEVQPQQNSQLMWKQGRQLLRQYLQEVGYTDTILDVKSKRVRALLGFSSDVTDREDDKNQDSVINGTEAEVKETAMIGKSELTDSASVLDNFKFLESAAADVSDEDEDEDTDGRAKSVIDTSTIVRKKALPDTSEDRDTKEALKEFDFLVTSEEGDNESRSAGDGTDWEKEDQCLTPEAWNVDQGVISKLKEQYKKERKGKKGVKRPNRSKLQDMLANLRDVDELPSLQPSVGSPSRPSSSRLPEQELSRADEVEALTFPPSSGKSFIMGADEALESELGLGELAGLTVANEADSLAYDIANNKDALRKTWNPKFTLRSHFDGIRALAFHPIEPVLITASEDHTLKMWNLQKTAPAKKSTSLDVEPIYTFRAHKGPVLCVVMSSNGEQCYSGGTDGRIQSWSTTNPNVDPYDAYDPSVLRGPLLGHTDAVWGLAYSAAHQRLLSCSADGTLRLWNTTEVAPALSVFNDNQELGIPASVDLVSSDPSHMVASFSKGYTSIFNMETQQRVLTLESNVDSTSSSSCQINRVISHPTLPISITAHEDRHIKFYDNNTGKLIHSMVAHLEAVTSLAVDPNGLYLMSGSHDCSIRLWNLESKTCIQEFTAHRKKFEESIHDVAFHPSKCYIASAGADALAKVFV
B3: the binding result is listed as “binds”.
